# Data from the supplement of paper PMC8728848.
# Some of the results follow.
# B1: Ovorubin (Pomacea canaliculata), J7I2T6 (protein)
# chain: MFVATSLLLAIATLVVRASPHNYLIMDIEPPKSVSERDILNLLSPLQVKHSFRVTGSTRLLIVIRLDAQSYEKLDEITVPGKVEVIPAVNMADTMERCGVSWPRVELTDDNVTLFESESTLTDVTKEQLKAMLIGYGEHMSGLLQAHRFEYYQAAGATPHRHFVFVNSVPDEIEVFGREGVDIWGGPGEFVVKPQYVTRI
# Tests used:
# Experiment in all cases: glycan array binding signal (z-score within array); higher = stronger binding
# Details in all cases: glycan notation: IUPAC condensed, linker removed
# [1] = target: Neu5Ac(a2-3)Gal(b1-3)GlcNAc6S
# Summary of the method: (§1)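 The binding signal is a Z-score computed within each array and averaged over linkers. Arrays of the same protein sequence at different concentrations or buffers were also averaged together. Data originate from 3228 arrays in the Consortium for Functional Glycomics database, kept only where the protein sequence was available.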
# [2] = target: Neu5Ac(a2-3)Gal(b1-3)[Fuc(a1-4)]GlcNAc
# Summary of the method: as §1
# [3] = target: Neu5Ac(a2-3)Gal(b1-3)[Fuc(a1-4)]GlcNAc(b1-3)Gal(b1-3)[Fuc(a1-4)]GlcNAc
# Summary of the method: as §1
# [4] = target: Neu5Ac(a2-3)Gal(b1-3)[Fuc(a1-4)]GlcNAc(b1-3)Gal(b1-4)[Fuc(a1-3)]GlcNAc
# Summary of the method: as §1
# [5] = target: Neu5Ac(a2-3)Gal(b1-3)[GlcNAc(b1-6)]GalNAc
# Summary of the method: as §1
# [6] = target: Neu5Ac(a2-3)Gal(b1-3)[Neu5Ac(a2-6)]GalNAc
# Summary of the method: as §1
# [7] = target: Neu5Ac(a2-3)Gal(b1-3)[Neu5Ac(a2-6)]GlcNAc(b1-3)[Fuc(a1-3)[Gal(b1-4)]GlcNAc(b1-6)]Gal(b1-4)Glc
# Summary of the method: as §1
# [8] = target: Neu5Ac(a2-3)Gal(b1-3)]Neu5Ac(a2-3)Gal(b1-4)]GlcNAc
# Summary of the method: as §1
# [9] = target: Neu5Ac(a2-3)Gal(b1-4)Glc
# Summary of the method: as §1
# [10] = target: Neu5Ac(a2-3)Gal(b1-4)GlcNAc
# Summary of the method: as §1
# [11] = target: Neu5Ac(a2-3)Gal(b1-4)GlcNAc(b1-2)Man
# Summary of the method: as §1
# [12] = target: Neu5Ac(a2-3)Gal(b1-4)GlcNAc(b1-2)Man(a1-3)[GlcNAc(b1-4)][Neu5Ac(a2-3)Gal(b1-4)GlcNAc(b1-2)Man(a1-6)]Man(b1-4)GlcNAc(b1-4)GlcNAc
# Summary of the method: as §1
# [13] = target: Neu5Ac(a2-3)Gal(b1-4)GlcNAc(b1-2)Man(a1-3)[Neu5Ac(a2-3)Gal(b1-4)GlcNAc(b1-2)Man(a1-6)]Man(b1-4)GlcNAc(b1-4)GlcNAc
# Summary of the method: as §1
# [14] = target: Neu5Ac(a2-3)Gal(b1-4)GlcNAc(b1-2)Man(a1-3)[Neu5Ac(a2-3)Gal(b1-4)GlcNAc(b1-2)Man(a1-6)]Man(b1-4)GlcNAc(b1-4)[Fuc(a1-6)]GlcNAc
# Summary of the method: as §1
# [15] = target: Neu5Ac(a2-3)Gal(b1-4)GlcNAc(b1-2)Man(a1-3)[Neu5Ac(a2-6)Gal(b1-4)GlcNAc(b1-2)Man(a1-6)]Man(b1-4)GlcNAc(b1-4)GlcNAc
# Summary of the method: as §1
# [16] = target: Neu5Ac(a2-3)Gal(b1-4)GlcNAc(b1-2)[Neu5Ac(a2-3)Gal(b1-4)GlcNAc(b1-4)]Man(a1-3)[GlcNAc(b1-4)][Neu5Ac(a2-3)Gal(b1-4)GlcNAc(b1-2)[Neu5Ac(a2-3)Gal(b1-4)GlcNAc(b1-6)]Man(a1-6)]Man(b1-4)GlcNAc(b1-4)GlcNAc
# Summary of the method: as §1
# [17] = target: Neu5Ac(a2-3)Gal(b1-4)GlcNAc(b1-2)[Neu5Ac(a2-3)Gal(b1-4)GlcNAc(b1-4)]Man(a1-3)[GlcNAc(b1-4)][Neu5Ac(a2-3)Gal(b1-4)GlcNAc(b1-4)Man(a1-6)]Man(b1-4)GlcNAc(b1-4)GlcNAc
# Summary of the method: as §1
# [18] = target: Neu5Ac(a2-3)Gal(b1-4)GlcNAc(b1-2)[Neu5Ac(a2-3)Gal(b1-4)GlcNAc(b1-6)]Man(a1-6)[Neu5Ac(a2-3)Gal(b1-4)GlcNAc(b1-2)Man(a1-3)]Man(b1-4)GlcNAc(b1-4)GlcNAc
# Summary of the method: as §1
# [19] = target: Neu5Ac(a2-3)Gal(b1-4)GlcNAc(b1-2)[Neu5Ac(a2-3)Gal(b1-4)GlcNAc(b1-6)]Man(a1-6)[Neu5Ac(a2-3)Gal(b1-4)GlcNAc(b1-2)Man(a1-3)][GlcNAc(b1-4)]Man(b1-4)GlcNAc(b1-4)GlcNAc
# Summary of the method: as §1
# [20] = target: Neu5Ac(a2-3)Gal(b1-4)GlcNAc(b1-3)Gal
# Summary of the method: as §1
# [21] = target: Neu5Ac(a2-3)Gal(b1-4)GlcNAc(b1-3)Gal(b1-3)GlcNAc
# Summary of the method: as §1
# [22] = target: Neu5Ac(a2-3)Gal(b1-4)GlcNAc(b1-3)Gal(b1-4)GlcNAc
# Summary of the method: as §1
# [23] = target: Neu5Ac(a2-3)Gal(b1-4)GlcNAc(b1-3)Gal(b1-4)GlcNAc(b1-2)Man(a1-3)[Neu5Ac(a2-3)Gal(b1-4)GlcNAc(b1-3)Gal(b1-4)GlcNAc(b1-2)Man(a1-6)]Man(b1-4)GlcNAc(b1-4)GlcNAc
# Summary of the method: as §1
# [24] = target: Neu5Ac(a2-3)Gal(b1-4)GlcNAc(b1-3)Gal(b1-4)GlcNAc(b1-3)Gal(b1-4)GlcNAc
# Summary of the method: as §1
# [25] = target: Neu5Ac(a2-3)Gal(b1-4)GlcNAc(b1-3)Gal(b1-4)GlcNAc(b1-3)Gal(b1-4)GlcNAc(b1-2)Man(a1-3)[Neu5Ac(a2-3)Gal(b1-4)GlcNAc(b1-3)Gal(b1-4)GlcNAc(b1-3)Gal(b1-4)GlcNAc(b1-2)Man(a1-6)]GalNAc
# Summary of the method: as §1
# [26] = target: Neu5Ac(a2-3)Gal(b1-4)GlcNAc(b1-3)Gal(b1-4)GlcNAc(b1-3)GalNAc
# Summary of the method: as §1
# [27] = target: Neu5Ac(a2-3)Gal(b1-4)GlcNAc(b1-3)Gal(b1-4)GlcNAc(b1-3)[Neu5Ac(a2-3)Gal(b1-4)GlcNAc(b1-3)Gal(b1-4)GlcNAc(b1-6)]GalNAc
# Summary of the method: as §1
# [28] = target: Neu5Ac(a2-3)Gal(b1-4)GlcNAc(b1-3)Gal(b1-4)GlcNAc(b1-6)[Gal(b1-3)]GalNAc
# Summary of the method: as §1
# [29] = target: Neu5Ac(a2-3)Gal(b1-4)GlcNAc(b1-3)Gal(b1-4)[Fuc(a1-3)]GlcNAc
# Summary of the method: as §1
# [30] = target: Neu5Ac(a2-3)Gal(b1-4)GlcNAc(b1-3)GalNAc
# Summary of the method: as §1
binder,measurement,setting,value
B1,glycan array binding signal (z-score),[1],0.718
same,glycan array binding signal (z-score),[2],-0.148
same,glycan array binding signal (z-score),[3],0.722
same,glycan array binding signal (z-score),[4],-0.697
same,glycan array binding signal (z-score),[5],0.518
same,glycan array binding signal (z-score),[6],-0.417
same,glycan array binding signal (z-score),[7],-0.335
same,glycan array binding signal (z-score),[8],-0.934
same,glycan array binding signal (z-score),[9],0.013
same,glycan array binding signal (z-score),[10],-0.593
same,glycan array binding signal (z-score),[11],1.09
same,glycan array binding signal (z-score),[12],-0.644
same,glycan array binding signal (z-score),[13],-0.45
same,glycan array binding signal (z-score),[14],-0.708
same,glycan array binding signal (z-score),[15],-1.01
same,glycan array binding signal (z-score),[16],-0.44
same,glycan array binding signal (z-score),[17],-0.397
same,glycan array binding signal (z-score),[18],0.215
same,glycan array binding signal (z-score),[19],-0.37
same,glycan array binding signal (z-score),[20],-0.653
same,glycan array binding signal (z-score),[21],-1.19
same,glycan array binding signal (z-score),[22],-0.012
same,glycan array binding signal (z-score),[23],-0.209
same,glycan array binding signal (z-score),[24],1.03
same,glycan array binding signal (z-score),[25],1.01
same,glycan array binding signal (z-score),[26],0.207
same,glycan array binding signal (z-score),[27],-0.594
same,glycan array binding signal (z-score),[28],-0.868
same,glycan array binding signal (z-score),[29],0.945
same,glycan array binding signal (z-score),[30],0.259

# 2 consecutive records from above, quoted:
binder,measurement,setting,value
B1,glycan array binding signal (z-score),[25],1.01
same,glycan array binding signal (z-score),[26],0.207
